# Laboratory results taken from patent US7977120B2, “Fluorescent sensors for cellular amines” (The Curators of the University of Missouri, priority 2005, dated 2011).
# Test: Titration of Sensor Ia with various analytes (UV-vis and fluorescence)
# Type: binding
# Conditions: change in absorbance; 10 μM sensor Ia, 100 mM Na2S2O3, 50 mM HEPES, 20 mM NaCl, pH=7.0, 37° C.
# Method: One exemplary coumarin-based sensor, 2-(((5-(7-(diethylamino)-3-formyl-2-oxo-2H-chromen-4-yl)pentyl)(methyl)amino)methyl)phenylboronic acid, sensor Ia, has been examined spectrophotometrically by titration with dopamine under neutral aqueous conditions in which a reducing agent is included to suppress oxidation of the air-sensitive catechol group.
# The titration conditions are 10 μM sensor Ia with 100 mM Na2S2O3, 50 mM HEPES, 20 mM NaCl, pH=7.0, and at 37° C. […] See also, Org. Lett. 2004, 6(21), 3727-3730, which is incorporated herein by reference.
# Binding constants (Ka) are determined by fluorescence titrations.
row,SMILES,Δλm01
1,NC1C(O)OC(CO)C(O)C1O (stereo not shown),39 nm
2,CNCC(O)c1ccc(O)c(O)c1 (stereo not shown) [epinephrine],0 nm
3,NCCc1ccc(O)cc1 [Tyramine],31 nm
4,NCCc1ccc(O)c(O)c1 [dopamine],30 nm
5,NC(CCC(=O)O)C(=O)O (stereo not shown),35 nm
6,NCCCCC(N)C(=O)O (stereo not shown),36 nm
7,NCC(O)c1ccc(O)c(O)c1 (stereo not shown) [norepinephrine],24 nm
